From paper PMC9293632, “PKGIα is activated by metal-dependent oxidation in vitro but not in intact cells” (The Journal of Biological Chemistry, 2022)
Results are given in words; binding and its absence hold for the method and conditions named. In cells and extracts the contact can be indirect. Some results given as binding are weak or reduced against the parent protein; the word gives no strength.

Molecular target: endogenous PKGIα of C2C12 cells (mouse (endogenous in C2C12)) (UniProt P0C605)
Experiment: cross-linking; disulfide cross-link at Cys43 in intact H9c2 or C2C12 cells treated with 100 μM H2O2 (1, 2, 4 h) or 500 μM H2O2 (1 h); lysis with 100 mM maleimide, nonreducing SDS-PAGE, Western blot for PKGI

B1: endogenous PKGIα of C2C12 cells (enzyme, UniProt P0C605 1-671)
chain: MSELEEDFAKILMLKEERIKELEKRLSEKEEEIQELKRKLHKCQSVLPVPSTHIGPRTTRAQGISAEPQTYRSFHDLRQAFRKFTKSERSKDLIKEAILDNDFMKNLELSQIQEIVDCMYPVEYGKDSCIIKEGDVGSLVYVMEDGKVEVTKEGVKLCTMGPGKVFGELAILYNCTRTATVKTLVNVKLWAIDRQCFQTIMMRTGLIKHTEYMEFLKSVPTFQSLPDEILSKLADVLEETHYENGEYIIRQGARGDTFFIISKGQVNVTREDSPSEDPVFLRTLGKGDWFGEKALQGEDVRTANVIAAEAVTCLVIDRDSFKHLIGGLDDVSNKAYEDAEAKAKYEAEAAFFANLKLSDFNIIDTLGVGGFGRVELVQLKSEESKTFAMKILKKRHIVDTRQQEHIRSEKQIMQGAHSDFIVRLYRTFKDSKYLYMLMEACLGGELWTILRDRGSFEDSTTRFYTACVVEAFAYLHSKGIIYRDLKPENLILDHRGYAKLVDFGFAKKIGFGKKTWTFCGTPEYVAPEIILNKGHDISADYWSLGILMYELLTGSPPFSGPDPMKTYNIILRGIDMIEFPKKIAKNAANLIKKLCRDNPSERLGNLKNGVKDIQKHKWFEGFNWEGLRKGTLTPPIIPSVASPTDTSNFDSFPEDSDEPPPDDNSGWDIDF
binding: binds
